Laboratory results as given in the supplement of paper PMC11732987, “Enantioselective OTUD7B fragment discovery through chemoproteomics screening and high-throughput optimisation” (Communications Chemistry, 2025).
Some of the results follow. The data scatter; read single values as rough.

Sequences of proteins named here, by UniProt entry; tags and fusion partners are left off. A change or cut given only in a name is not applied to a line headed by its entry. Residues count along the entry.
UniProt P47756, 196-215: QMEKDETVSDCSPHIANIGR
UniProt Q6UWU4: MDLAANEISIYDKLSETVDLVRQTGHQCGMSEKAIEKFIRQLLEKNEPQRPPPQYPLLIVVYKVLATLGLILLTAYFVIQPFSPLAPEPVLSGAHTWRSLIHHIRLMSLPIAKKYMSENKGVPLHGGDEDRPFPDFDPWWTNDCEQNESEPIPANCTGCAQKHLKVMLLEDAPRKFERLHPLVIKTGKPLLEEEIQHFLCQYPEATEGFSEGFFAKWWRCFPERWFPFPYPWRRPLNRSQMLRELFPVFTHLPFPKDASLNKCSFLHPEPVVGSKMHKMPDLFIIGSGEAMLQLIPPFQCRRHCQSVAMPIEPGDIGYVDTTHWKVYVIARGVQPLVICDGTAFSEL
UniProt O75155, 112-132: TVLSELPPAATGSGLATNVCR
UniProt P17655, 391-414: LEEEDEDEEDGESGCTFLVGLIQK
UniProt O14936: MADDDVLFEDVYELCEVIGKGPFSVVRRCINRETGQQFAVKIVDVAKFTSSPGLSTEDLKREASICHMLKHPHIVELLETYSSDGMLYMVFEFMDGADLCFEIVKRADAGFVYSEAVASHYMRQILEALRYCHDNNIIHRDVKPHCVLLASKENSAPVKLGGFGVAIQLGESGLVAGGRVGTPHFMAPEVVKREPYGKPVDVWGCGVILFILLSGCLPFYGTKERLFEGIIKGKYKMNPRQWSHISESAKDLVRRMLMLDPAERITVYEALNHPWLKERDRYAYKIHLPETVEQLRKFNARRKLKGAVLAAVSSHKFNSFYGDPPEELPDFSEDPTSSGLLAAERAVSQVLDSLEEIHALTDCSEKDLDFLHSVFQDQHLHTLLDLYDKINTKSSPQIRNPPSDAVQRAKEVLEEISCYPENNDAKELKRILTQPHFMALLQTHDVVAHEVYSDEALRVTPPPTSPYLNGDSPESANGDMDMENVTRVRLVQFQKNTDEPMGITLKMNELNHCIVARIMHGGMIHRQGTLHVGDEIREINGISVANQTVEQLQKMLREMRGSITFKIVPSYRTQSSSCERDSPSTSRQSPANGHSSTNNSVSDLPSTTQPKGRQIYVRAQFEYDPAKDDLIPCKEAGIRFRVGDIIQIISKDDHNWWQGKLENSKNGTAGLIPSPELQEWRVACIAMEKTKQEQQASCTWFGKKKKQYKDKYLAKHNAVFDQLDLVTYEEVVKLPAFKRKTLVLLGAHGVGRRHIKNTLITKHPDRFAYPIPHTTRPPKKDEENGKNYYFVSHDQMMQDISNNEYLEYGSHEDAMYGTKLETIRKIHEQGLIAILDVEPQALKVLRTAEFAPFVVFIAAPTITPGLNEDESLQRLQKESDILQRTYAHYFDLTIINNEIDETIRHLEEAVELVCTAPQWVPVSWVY
UniProt Q6ZRI6: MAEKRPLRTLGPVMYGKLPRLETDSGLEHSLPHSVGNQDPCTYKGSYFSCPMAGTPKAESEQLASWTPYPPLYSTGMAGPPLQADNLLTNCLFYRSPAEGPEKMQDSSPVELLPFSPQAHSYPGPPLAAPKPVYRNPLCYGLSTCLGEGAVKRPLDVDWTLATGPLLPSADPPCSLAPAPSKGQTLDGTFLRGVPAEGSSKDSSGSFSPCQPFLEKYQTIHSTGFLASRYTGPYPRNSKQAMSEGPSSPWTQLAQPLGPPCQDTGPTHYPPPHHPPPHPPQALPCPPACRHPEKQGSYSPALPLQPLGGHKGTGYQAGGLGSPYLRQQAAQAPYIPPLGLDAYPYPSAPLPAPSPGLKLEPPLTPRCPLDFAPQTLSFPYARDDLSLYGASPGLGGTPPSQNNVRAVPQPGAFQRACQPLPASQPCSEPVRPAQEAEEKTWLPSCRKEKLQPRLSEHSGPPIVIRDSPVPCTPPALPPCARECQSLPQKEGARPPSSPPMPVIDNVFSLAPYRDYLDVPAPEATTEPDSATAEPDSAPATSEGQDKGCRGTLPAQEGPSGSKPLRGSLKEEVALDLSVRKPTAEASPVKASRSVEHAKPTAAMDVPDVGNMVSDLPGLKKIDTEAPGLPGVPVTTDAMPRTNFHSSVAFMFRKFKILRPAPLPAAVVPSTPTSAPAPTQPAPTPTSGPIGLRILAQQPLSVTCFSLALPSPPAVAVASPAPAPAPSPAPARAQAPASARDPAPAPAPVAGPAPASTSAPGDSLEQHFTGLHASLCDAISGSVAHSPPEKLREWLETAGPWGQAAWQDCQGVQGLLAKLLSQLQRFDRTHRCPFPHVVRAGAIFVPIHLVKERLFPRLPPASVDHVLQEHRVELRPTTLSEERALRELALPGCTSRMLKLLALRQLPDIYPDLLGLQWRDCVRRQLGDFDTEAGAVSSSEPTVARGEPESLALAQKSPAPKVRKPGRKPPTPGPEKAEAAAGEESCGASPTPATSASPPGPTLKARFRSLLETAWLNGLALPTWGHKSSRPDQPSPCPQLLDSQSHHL
UniProt O15234, 32-52: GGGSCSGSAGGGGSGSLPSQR
UniProt Q13557, whole entry, looked up: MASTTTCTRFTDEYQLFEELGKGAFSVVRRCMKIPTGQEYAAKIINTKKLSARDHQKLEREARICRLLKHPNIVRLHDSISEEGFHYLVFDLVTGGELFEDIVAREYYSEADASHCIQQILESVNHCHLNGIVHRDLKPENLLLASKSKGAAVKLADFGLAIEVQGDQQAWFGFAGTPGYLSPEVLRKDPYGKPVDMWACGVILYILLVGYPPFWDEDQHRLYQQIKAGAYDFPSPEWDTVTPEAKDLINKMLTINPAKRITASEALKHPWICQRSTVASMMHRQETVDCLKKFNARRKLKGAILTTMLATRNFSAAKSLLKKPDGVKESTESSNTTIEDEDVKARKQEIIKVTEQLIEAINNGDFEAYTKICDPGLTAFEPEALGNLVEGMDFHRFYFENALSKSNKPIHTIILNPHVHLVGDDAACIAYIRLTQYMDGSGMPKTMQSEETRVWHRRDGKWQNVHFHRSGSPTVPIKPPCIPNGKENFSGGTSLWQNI
UniProt Q8N5S9: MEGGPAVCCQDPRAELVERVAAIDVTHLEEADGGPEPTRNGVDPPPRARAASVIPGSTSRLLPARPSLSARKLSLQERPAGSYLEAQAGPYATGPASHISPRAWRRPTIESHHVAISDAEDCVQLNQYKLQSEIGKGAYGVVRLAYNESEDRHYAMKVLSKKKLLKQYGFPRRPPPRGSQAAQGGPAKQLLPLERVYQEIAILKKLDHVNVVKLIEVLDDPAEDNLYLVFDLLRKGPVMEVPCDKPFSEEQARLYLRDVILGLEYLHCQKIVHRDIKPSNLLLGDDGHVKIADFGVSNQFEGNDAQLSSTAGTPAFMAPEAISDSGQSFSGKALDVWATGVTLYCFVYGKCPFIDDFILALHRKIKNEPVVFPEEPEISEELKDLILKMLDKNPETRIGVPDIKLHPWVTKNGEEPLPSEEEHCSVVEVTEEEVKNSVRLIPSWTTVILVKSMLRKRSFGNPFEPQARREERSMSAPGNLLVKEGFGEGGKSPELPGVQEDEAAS
UniProt O14981: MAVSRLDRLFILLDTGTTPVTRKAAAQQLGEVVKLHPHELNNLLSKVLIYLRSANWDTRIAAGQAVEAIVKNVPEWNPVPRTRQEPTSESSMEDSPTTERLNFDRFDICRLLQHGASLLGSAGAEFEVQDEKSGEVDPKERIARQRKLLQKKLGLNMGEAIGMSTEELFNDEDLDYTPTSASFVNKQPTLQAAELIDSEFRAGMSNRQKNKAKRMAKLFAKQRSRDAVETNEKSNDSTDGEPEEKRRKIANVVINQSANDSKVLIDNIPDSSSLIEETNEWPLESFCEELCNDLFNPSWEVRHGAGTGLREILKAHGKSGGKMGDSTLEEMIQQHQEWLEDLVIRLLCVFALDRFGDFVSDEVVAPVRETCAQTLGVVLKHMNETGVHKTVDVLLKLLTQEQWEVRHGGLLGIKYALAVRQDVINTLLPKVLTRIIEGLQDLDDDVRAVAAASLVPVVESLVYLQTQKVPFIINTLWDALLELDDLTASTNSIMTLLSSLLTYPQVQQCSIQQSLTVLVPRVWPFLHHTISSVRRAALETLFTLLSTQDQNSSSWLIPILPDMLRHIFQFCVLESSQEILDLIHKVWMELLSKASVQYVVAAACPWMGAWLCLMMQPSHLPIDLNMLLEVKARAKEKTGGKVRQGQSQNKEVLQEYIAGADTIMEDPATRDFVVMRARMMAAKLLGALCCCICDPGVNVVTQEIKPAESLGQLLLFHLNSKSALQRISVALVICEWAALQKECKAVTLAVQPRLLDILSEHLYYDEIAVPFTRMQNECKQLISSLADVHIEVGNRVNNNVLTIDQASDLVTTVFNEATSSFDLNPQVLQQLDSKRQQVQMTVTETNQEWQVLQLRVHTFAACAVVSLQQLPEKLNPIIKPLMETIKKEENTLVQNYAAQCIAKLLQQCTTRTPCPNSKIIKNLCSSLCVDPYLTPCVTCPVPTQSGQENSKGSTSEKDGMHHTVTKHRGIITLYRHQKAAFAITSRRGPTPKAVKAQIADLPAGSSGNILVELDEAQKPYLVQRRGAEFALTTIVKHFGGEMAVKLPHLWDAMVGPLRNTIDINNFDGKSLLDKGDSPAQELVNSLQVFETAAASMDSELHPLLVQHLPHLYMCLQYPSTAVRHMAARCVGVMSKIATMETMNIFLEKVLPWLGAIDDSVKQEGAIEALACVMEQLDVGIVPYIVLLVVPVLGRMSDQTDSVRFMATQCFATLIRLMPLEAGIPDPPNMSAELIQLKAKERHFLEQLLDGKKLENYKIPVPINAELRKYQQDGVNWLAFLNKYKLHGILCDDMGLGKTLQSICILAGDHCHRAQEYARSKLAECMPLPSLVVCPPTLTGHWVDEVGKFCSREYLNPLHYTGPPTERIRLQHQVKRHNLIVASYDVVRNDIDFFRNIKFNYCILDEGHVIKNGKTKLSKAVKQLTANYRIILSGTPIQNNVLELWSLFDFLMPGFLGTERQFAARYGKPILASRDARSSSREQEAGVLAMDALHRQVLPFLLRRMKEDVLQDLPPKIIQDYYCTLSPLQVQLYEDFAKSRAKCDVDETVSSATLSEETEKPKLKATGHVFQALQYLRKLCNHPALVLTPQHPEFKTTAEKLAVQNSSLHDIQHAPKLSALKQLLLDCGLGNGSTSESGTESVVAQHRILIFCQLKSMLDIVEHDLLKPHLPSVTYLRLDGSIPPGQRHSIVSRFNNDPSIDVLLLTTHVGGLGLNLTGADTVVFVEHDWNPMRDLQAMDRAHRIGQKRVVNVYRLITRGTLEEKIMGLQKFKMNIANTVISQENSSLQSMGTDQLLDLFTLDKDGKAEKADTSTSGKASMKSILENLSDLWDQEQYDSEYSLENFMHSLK
UniProt O60566, whole entry, looked up: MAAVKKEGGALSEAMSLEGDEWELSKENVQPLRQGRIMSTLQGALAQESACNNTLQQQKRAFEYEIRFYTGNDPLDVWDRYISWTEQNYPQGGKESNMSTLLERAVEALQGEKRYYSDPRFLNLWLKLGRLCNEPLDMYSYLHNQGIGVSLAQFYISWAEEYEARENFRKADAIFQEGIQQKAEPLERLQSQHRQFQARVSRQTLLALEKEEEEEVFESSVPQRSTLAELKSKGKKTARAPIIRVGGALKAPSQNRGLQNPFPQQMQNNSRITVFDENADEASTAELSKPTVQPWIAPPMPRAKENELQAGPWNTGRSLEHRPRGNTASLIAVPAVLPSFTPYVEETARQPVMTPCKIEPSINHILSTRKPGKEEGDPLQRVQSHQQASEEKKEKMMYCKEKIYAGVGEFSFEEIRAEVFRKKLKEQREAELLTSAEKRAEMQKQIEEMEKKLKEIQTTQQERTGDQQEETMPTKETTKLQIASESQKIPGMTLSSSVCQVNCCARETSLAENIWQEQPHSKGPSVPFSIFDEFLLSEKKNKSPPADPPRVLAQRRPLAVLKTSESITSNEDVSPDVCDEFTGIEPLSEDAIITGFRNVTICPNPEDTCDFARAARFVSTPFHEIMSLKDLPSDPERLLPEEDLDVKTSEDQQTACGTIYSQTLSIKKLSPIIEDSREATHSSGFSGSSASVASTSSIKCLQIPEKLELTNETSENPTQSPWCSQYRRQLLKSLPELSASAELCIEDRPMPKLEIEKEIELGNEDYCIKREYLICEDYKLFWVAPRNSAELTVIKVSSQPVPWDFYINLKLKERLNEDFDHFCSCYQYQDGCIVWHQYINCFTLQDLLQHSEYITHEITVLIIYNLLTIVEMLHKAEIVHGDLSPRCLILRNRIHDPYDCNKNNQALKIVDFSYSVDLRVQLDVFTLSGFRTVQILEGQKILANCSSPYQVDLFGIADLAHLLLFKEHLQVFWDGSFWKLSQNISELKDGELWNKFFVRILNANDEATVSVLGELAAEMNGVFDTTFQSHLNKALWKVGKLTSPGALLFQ
UniProt Q32NC0: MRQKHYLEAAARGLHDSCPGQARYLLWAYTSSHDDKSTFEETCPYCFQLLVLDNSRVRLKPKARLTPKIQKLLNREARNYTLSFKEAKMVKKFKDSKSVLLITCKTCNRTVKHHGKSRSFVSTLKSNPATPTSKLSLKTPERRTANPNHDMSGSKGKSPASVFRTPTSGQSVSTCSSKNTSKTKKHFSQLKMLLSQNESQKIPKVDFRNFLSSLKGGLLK
UniProt Q86X55, 62-81: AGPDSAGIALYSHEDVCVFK

How the values were obtained:
[1] = compound: ClCC(=O)N[C@@H]1CCCc2ccccc12; test: log2 mean competition ratio of IA-DTB cysteine labelling (DMSO/compound) (log2 ratio); higher = stronger cysteine engagement by compound; conditions: treatment time: 4 h, cell line lysate: HEK293T
Protocol: (§1)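 IA-DTB competitive cysteine chemoproteomics in HEK293T RIPA lysate. Lysates were treated with compound 29 or 30 at 50 or 200 µM for 4 h, then IA-DTB (500 µM, 1 h), trypsin-digested, NeutrAvidin-enriched and analysed by diaPASEF. Competition ratio = intensity DMSO / intensity compound (n=4 treated, n=64 DMSO); binding: mean log2 CR ≥ 1 and p ≤ 0.05 plus QC filters. Target is the cysteine site.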

[2] = compound: ClCC(=O)N[C@H]1CCCc2ccccc12; test: as above; conditions: treatment time: 4 h, cell line lysate: HEK293T
Protocol: as §1

Row | Target | log2 mean competition ratio ([1]; 50 µM) | log2 mean competition ratio ([1]; 200 µM) | log2 mean competition ratio ([2]; 50 µM) | log2 mean competition ratio ([2]; 200 µM)
1 | CAPZB C8 (UniProt P47756) | -0.413 | -0.797 | 0.111 | 0.401
2 | CASP10 C43 (UniProt Q92851) | 0.225 | -0.103 | -0.344 | -0.00529
3 | C7orf26 C145 (UniProt Q96N11) | 0.207 | -0.0286 | 0.0666 | 0.0452
4 | CAMKMT C25 (UniProt Q7Z624) | 0.0176 | 0.0588 | -0.0723 | 0.0386
5 | C17orf75 C357 (UniProt Q9HAS0) | 0.000746 | -0.0849 | -0.107 | -0.0846
6 | BPTF C1156 | -0.249 | 0.173 | -0.408 | -0.369
7 | BOD1L1 C1742 (UniProt Q8NFC6) | -0.348 | 0.0263 | 0.279 | 0.0719
8 | C6orf89 C28 (UniProt Q6UWU4) | -0.172 | 0.156 | -0.204 | -0.0349
9 | CAND2 C1139 (UniProt O75155) | 0.0626 | -0.221 | -0.278 | -0.179
10 | CADM1 C313 (UniProt Q9BY67) | -0.0884 | 0.177 | -0.00334 | 0.164
11 | CAPN2 C577 (UniProt P17655) | -0.247 | -0.019 | 0.0215 | -0.0167
12 | CASK C698 (UniProt O14936) | 0.183 | 0.183 | 0.127 | 0.18
13 | C9orf72 C5 (UniProt Q96LT7) | -0.191 | -0.0872 | 0.139 | 0.0183
14 | CBR1 C122 (UniProt P16152) | -0.214 | 0.0754 | -0.448 | 0.126
15 | CAPN15 C101 (UniProt O75808) | 0.0198 | 0.348 | -0.123 | 0.014
16 | BPNT1 C42 | -0.21 | 0.0073 | -0.126 | 0.0131
17 | CAND2 C131 (UniProt O75155) | 0.398 | 0.0288 | 0.65 | 0.33
18 | BZW2 C270 (UniProt Q9Y6E2) | 0.0847 | 0.446 | 0.938 | 0.724
19 | BRCA2 C2117 (UniProt P51587) | -0.041 | -0.278 | -0.35 | -0.0268
20 | CARNMT1 C180 (UniProt Q8N4J0) | 0.00289 | -0.156 | -0.0445 | -0.0546

Row | Target | log2 mean competition ratio ([1]; 50 µM) | log2 mean competition ratio ([1]; 200 µM) | log2 mean competition ratio ([2]; 50 µM) | log2 mean competition ratio ([2]; 200 µM)
21 | C15orf39 C210 (UniProt Q6ZRI6) | 0.154 | -0.0102 | 0.688 | 0.3
22 | CADPS2 C218 | -0.107 | 0.0995 | -0.485 | -0.0145
23 | CAPZB C206 (UniProt P47756) | -0.518 | -0.00515 | 0.000226 | 0.0119
24 | CAPZB C147 (UniProt P47756) | 0.24 | 0.0241 | -0.0628 | -0.0685
25 | CASC3 C36 (UniProt O15234) | -0.0638 | 0.24 | 0.032 | 0.171
26 | CBR3 C122 (UniProt O75828) | 0.0463 | -0.0773 | -0.0682 | -0.122
27 | CAND2 C959 (UniProt O75155) | -0.309 | -0.0496 | 0.0807 | 0.208
28 | CAMSAP2 C1032 (UniProt Q08AD1) | 0.124 | -0.0923 | 0.0488 | -0.0176
29 | CARHSP1 C112 | 0.218 | -0.808 | -0.398 | -0.438
30 | BRCC3 C240 (UniProt P46736) | 0.014 | 0.157 | -0.49 | 0.217
31 | BPTF C1357 | -0.0491 | 0.278 | -0.177 | 0.352
32 | BUB1 C1013 (UniProt O43683) | -0.173 | 0.345 | -0.335 | 0.102
33 | BRD7 C338 (UniProt Q9NPI1) | 0.00668 | 0.0778 | 0.0448 | 0.147
34 | CAMK2D C290 (UniProt Q13557) | -0.139 | -0.426 | 0.282 | -0.164
35 | BSG C242 (UniProt P35613) | -0.159 | 0.0145 | 0.134 | 0.115
36 | CBX2 C284 (UniProt Q14781) | 0.252 | 0.208 | 0.00158 | 0.325
37 | CBS C109 (UniProt P35520) | -0.105 | -0.0194 | -0.278 | -0.0308
38 | CAPN2 C405 (UniProt P17655) | -0.297 | 0.157 | -0.0915 | 0.334
39 | CARMIL2 C1339 (UniProt Q6F5E8) | 0.0212 | -0.133 | 0.283 | -0.0312
40 | BTBD10 C86 (UniProt Q9BSF8) | 0.0105 | -0.0853 | 0.449 | -0.03

Complete entries from above. Order of values: log2 mean competition ratio ([1]; 50 µM) | log2 mean competition ratio ([1]; 200 µM) | log2 mean competition ratio ([2]; 50 µM) | log2 mean competition ratio ([2]; 200 µM)
CAND2 C959 (UniProt O75155) as listed: -0.309 | -0.0496 | 0.0807 | 0.208
BPTF C1357 as listed: -0.0491 | 0.278 | -0.177 | 0.352

Following part.

Row | Target | log2 mean competition ratio ([1]; 50 µM) | log2 mean competition ratio ([1]; 200 µM) | log2 mean competition ratio ([2]; 50 µM) | log2 mean competition ratio ([2]; 200 µM)
41 | CAMKK1 C243 (UniProt Q8N5S9) | -0.0985 | 0.0611 | -0.426 | -0.112
42 | BRCA2 C341 (UniProt P51587) | 0.103 | 0.151 | -0.222 | 0.0383
43 | CAPN10 C130 | 0.0819 |  | -0.168 | 0.244
44 | BTAF1 C908 (UniProt O14981) | 0.0954 | 0.0756 | 0.11 | 0.0623
45 | BPNT1 C243 | 0.358 |  | 0.182 | -0.0273
46 | BUB3 C129 (UniProt O43684) | -0.127 | -0.113 | -0.246 | -0.184
47 | BUB1B C900 (UniProt O60566) | 0.117 | 0.328 | 0.111 | 0.19
48 | CAP1 C93 | 0.0525 | -0.151 | 0.136 | -0.195
49 | C18orf21 C175 (UniProt Q32NC0) | -0.134 | 0.378 | -0.193 | 0.103
50 | BUB1 C184 (UniProt O43683) | 0.0945 | 0.16 | 0.17 | 0.181
51 | CARM1 C78 (UniProt Q86X55) | -0.243 | -0.0661 | -0.203 | -0.198
52 | BRMS1L C275 (UniProt Q5PSV4) | 0.2 | -0.359 | -0.242 | -0.603
53 | CAMKV C36 | -0.264 | -0.0891 | -0.205 | 0.122
54 | BRPF1 C570 | -0.00596 | 0.151 | -0.0535 | 0.0391
55 | BOD1L1 C1947 (UniProt Q8NFC6) | -0.203 | 0.0328 | 0.198 | 0.193
56 | C22orf39 C105 (UniProt Q6P5X5) | 0.553 | -0.0221 | 0.305 | 0.133
57 | BRCA1 C348 (UniProt P38398) | -0.0843 | 0.271 | -0.0188 | 0.299
58 | C18orf32 C71 (UniProt Q8TCD1) | -0.29 | 0.132 | -0.0219 | 0.261
